Among all 1,000 compounds or so, fewer than 10 were called active. The rule behind the calls is not given here. This is a selection; strong and weak results do not stand in their true shares.

1 compound from PubChem BioAssay AID504714 (Sanford-Burnham Center for Chemical Genomics, 2011) can be followed below.

This assay in a line: E. coli UDG inhibitors, confirmation, counter-screen for APOBEC3A inhibitor project, biochemical, single concentration, fluorescence, FAM/TAMRA oligo (AID 504714). The settings on record: UDG counterscreen, FAM/TAMRA uracil oligo fluorescence; at 20 µM; stronger effect = higher value. On the technique in general: Counterscreens check selectivity or assay interference.
In general, inhibition refers to the share of the control response that was lost under treatment. In the case of `O=C(O)CCn1cc(C=C2C(=O)NC(=S)NC2=O)c(-c2cccc(Br)c2)n1`, the inhibition is inactive: 4.11%.
